# The other results are listed elsewhere or left out.
# B1: SspB (Streptococcus gordonii), P16952 (protein)
# chain: MKNKKEVYGFRKSKVAKTLCGAVLGTALIAFADKAVFADEVTETTSTSTVEVATTGNPATNLPEAQGEMSQVAKESQAKAGSKESALPVEVSSADLDKAVADAKSAGVKVVQDETKDKGTATTATDNAQKQDEIKSDYAKQAEEIKTTTEAYKKEVAAHQAETDKINAENKAADDKYQKDLKSHQEEVEKINTANATAKAEYEAKLAQYQKDLATVKKANEDSQQDYQNKLSAYQTELARVQKANAEAKEAYEKAVKENTAKNEALKVENEAIKQRNETAKATYEAAMKQYEADLAAIKKANEDNDADYQAKLAAYQTELARVQKANAEAKEAYDKAVKENTAKNTAIQAENEAIKQRNETAKATYDAAVKKYEADLAAVKQANATNEADYQAKLAAYQTELARVQKANADAKATYEKAVEDNKAKNAAIKAENEEIKQRNAVAKTDYEAKLAKYEADLAKYKKEFAAYTAALAEAESKKKQDGYLSEPRSQSLNFKSEPNAIRTIDSSVHQYGQQELDALVKSWGISPTNPDRKKSRAYSYFNAINSNNTYAKLVLEKDKPVDVTYTGLKNSSFNGKKISKVVYTYTLKETGFNDGTKMTMFASSDPTVTAWYNDYFTSTNINVKVKFYDEEGQLMNLTGGLVNFSSLNRGNGSGAIDKDAIESVRNFNGRYIPISGSSIKIHENNSAYADSSNAEKSLGARWNTSEWDTTSSPNNWYGAIVGEITQSEISFNMASSKSGNIWFAFNSNINAIGVPTKPVAPTAPTQPMYETEKPLEPAPVAPSYENEPTPPVKTPDQPEPSKPEEPTYETEKPLEPAPVAPSYENEPTPPVKTPDQPEPSKPEEPNYETEKPLEPAPVAPSYENEPTPPVKIPDQPEPSKPEEPTYDPLPTPPLAPTPKQLPTPPVVPTVHFHYSSLLAQPQINKEIKNEDGVDIDRTLVAKQSIVKFELKTEALTAGRPKTTSFVLVDPLPTGYKFDLDATKAASTGFDTTYDEASHTVTFKATDETLATYNADLTKPVETLHPTVVGRVLNDGATYTNNFTLTVNDAYGIKSNVVRVTTPGKPNDPDNPNNNYIKPTKVNKNKEGLNIDGKEVLAGSTNYYELTWDLDQYKGDKSSKEAIQNGFYYVDDYPEEALDVRPDLVKVADEKGNQVSGVSVQQYDSLEAAPKKVQDLLKKANITVKGAFQLFSADNPEEFYKQYVATGTSLVITDPMTVKSEFGKTGGKYENKAYQIDFGNGYATEVVVNNVPKITPKKDVTVSLDPTSENLDGQTVQLYQTFNYRLIGGLIPQNHSEELEDYSFVDDYDQAGDQYTGNYKTFSSLNLTMKDGSVIKAGTDLTSQTTAETDATNGIVTVRFKEDFLQKISLDSPFQAETYLQMRRIAIGTFENTYVNTVNKVAYASNTVRTTTPIPRTPDKPTPIPTPKPKDPDKPETPKEPKVPSPKVEDPSAPIPVSVGKELTTLPKTGTNDATYMPYLGLAALVGFLGLGLAKRKED
# Key:
# Test in all cases: glycan array binding signal (z-score within array); higher = stronger binding
# Conditions in all cases: glycan notation: IUPAC condensed, linker removed
# [1] = target: GalNAc(b1-3)Gal(a1-4)Gal(b1-4)GlcNAc
# In short: (§1)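 The Consortium for Functional Glycomics database supplied 3228 glycan arrays, of which those lacking an available protein sequence were dropped. The binding signal, a within-array Z-score, was averaged across arrays of the same protein sequence and across linkers. Negative scores can be read as non-binding.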
# [2] = target: GalNAc(b1-3)Gal(a1-4)Gal(b1-4)GlcNAc(b1-3)Gal(b1-4)Glc
# In short: as §1
# [3] = target: GalNAc(b1-3)Gal(a1-6)Gal(b1-4)Glc
# In short: as §1
# GalNAc(b1-3)GalNAc = target: GalNAc(b1-3)GalNAc
# In short: as §1
# GalNAc(b1-4)GlcNAc = target: GalNAc(b1-4)GlcNAc
# In short: as §1
# [4] = target: GalNAc(b1-4)GlcNAc(b1-2)Man(a1-3)[GalNAc(b1-4)GlcNAc(b1-2)Man(a1-6)]Man(b1-4)GlcNAc(b1-4)GlcNAc
# In short: as §1
# Glc(a1-4)Glc = target: Glc(a1-4)Glc
# In short: as §1
# Glc(a1-6)Glc(a1-6)Glc = target: Glc(a1-6)Glc(a1-6)Glc
# In short: as §1
# Glc(b1-4)Glc = target: Glc(b1-4)Glc
# In short: as §1
# Glc(b1-6)Glc = target: Glc(b1-6)Glc
# In short: as §1
# GlcA(b1-3)Gal = target: GlcA(b1-3)Gal
# In short: as §1
# GlcA(b1-3)GlcNAc = target: GlcA(b1-3)GlcNAc
# In short: as §1
# GlcA(b1-6)Gal = target: GlcA(b1-6)Gal
# In short: as §1
# [5] = target: GlcNAc(a1-3)Gal(b1-4)GlcNAc
# In short: as §1
# [6] = target: GlcNAc(a1-4)Gal(b1-3)GlcNAc
# In short: as §1
# [7] = target: GlcNAc(a1-4)Gal(b1-4)GalNAc
# In short: as §1
# [8] = target: GlcNAc(a1-4)Gal(b1-4)GlcNAc
# In short: as §1
# [9] = target: GlcNAc(a1-4)Gal(b1-4)GlcNAc(b1-3)Gal(b1-4)Glc
# In short: as §1
# [10] = target: GlcNAc(a1-4)Gal(b1-4)GlcNAc(b1-3)Gal(b1-4)GlcNAc
# In short: as §1
# [11] = target: GlcNAc(a1-4)Gal(b1-4)GlcNAc(b1-3)Gal(b1-4)GlcNAc(b1-3)Gal(b1-4)GlcNAc
# In short: as §1
# [12] = target: GlcNAc(a1-4)Gal(b1-4)GlcNAc(b1-3)Gal(b1-4)[Fuc(a1-3)]GlcNAc(b1-3)Gal(b1-4)[Fuc(a1-3)]GlcNAc
# In short: as §1
# [13] = target: GlcNAc(a1-6)Gal(b1-4)GlcNAc
# In short: as §1
# [14] = target: GlcNAc(b1-2)Gal(b1-3)GalNAc
# In short: as §1
# [15] = target: GlcNAc(b1-2)Man(a1-3)[GlcNAc(b1-2)Man(a1-6)]Man(b1-4)GlcNAc(b1-4)GlcNAc
# In short: as §1
# [16] = target: GlcNAc(b1-2)Man(a1-3)[GlcNAc(b1-2)Man(a1-6)]Man(b1-4)GlcNAc(b1-4)[Fuc(a1-6)]GlcNAc
# In short: as §1
# [17] = target: GlcNAc(b1-2)[GlcNAc(b1-4)]Man(a1-3)[GlcNAc(b1-2)Man(a1-6)]Man(b1-4)GlcNAc(b1-4)GlcNAc
# In short: as §1
# GlcNAc(b1-3)Gal = target: GlcNAc(b1-3)Gal
# In short: as §1
# [18] = target: GlcNAc(b1-3)Gal(b1-3)GalNAc
# In short: as §1
# GlcNAc(b1-3)Gal(b1-4)Glc = target: GlcNAc(b1-3)Gal(b1-4)Glc
# In short: as §1
# [19] = target: GlcNAc(b1-3)Gal(b1-4)GlcNAc
# In short: as §1
# [20] = target: GlcNAc(b1-3)Gal(b1-4)GlcNAc(b1-3)Gal(b1-4)GlcNAc
# In short: as §1
# GlcNAc(b1-3)GalNAc = target: GlcNAc(b1-3)GalNAc
# In short: as §1
# GlcNAc(b1-3)Man = target: GlcNAc(b1-3)Man
# In short: as §1
# [21] = target: GlcNAc(b1-3)[GlcNAc(b1-4)][GlcNAc(b1-6)]GlcNAc
# In short: as §1
# [22] = target: GlcNAc(b1-3)[GlcNAc(b1-6)]Gal(b1-4)GlcNAc
# In short: as §1
# [23] = target: GlcNAc(b1-3)[GlcNAc(b1-6)]GalNAc
# In short: as §1
# [24] = target: GlcNAc(b1-4)Gal(b1-4)GlcNAc
# In short: as §1
# GlcNAc(b1-4)GlcNAc = target: GlcNAc(b1-4)GlcNAc
# In short: as §1
# [25] = target: GlcNAc(b1-4)GlcNAc(b1-4)GlcNAc
# In short: as §1
# [26] = target: GlcNAc(b1-4)GlcNAc(b1-4)GlcNAc(b1-4)GlcNAc(b1-4)GlcNAc
# In short: as §1
# [27] = target: GlcNAc(b1-4)GlcNAc(b1-4)GlcNAc(b1-4)GlcNAc(b1-4)GlcNAc(b1-4)GlcNAc
# In short: as §1
# [28] = target: GlcNAc(b1-4)[GlcNAc(b1-6)]GalNAc
# In short: as §1
# [29] = target: GlcNAc(b1-6)Gal(b1-4)GlcNAc
# In short: as §1
# GlcNAc(b1-6)GalNAc = target: GlcNAc(b1-6)GalNAc
# In short: as §1
# GlcNAc3Prop(b1-4)GlcNAc = target: GlcNAc3Prop(b1-4)GlcNAc
# In short: as §1
binder,measurement,setting,value
B1,glycan array binding signal (z-score),[1],0.073
same,glycan array binding signal (z-score),[2],-1.02
same,glycan array binding signal (z-score),[3],-0.859
same,glycan array binding signal (z-score),GalNAc(b1-3)GalNAc,-1.34
same,glycan array binding signal (z-score),GalNAc(b1-4)GlcNAc,0.298
same,glycan array binding signal (z-score),[4],1.48
same,glycan array binding signal (z-score),Glc(a1-4)Glc,-1.18
same,glycan array binding signal (z-score),Glc(a1-6)Glc(a1-6)Glc,-0.494
same,glycan array binding signal (z-score),Glc(b1-4)Glc,0.618
same,glycan array binding signal (z-score),Glc(b1-6)Glc,-1.1
same,glycan array binding signal (z-score),GlcA(b1-3)Gal,-0.328
same,glycan array binding signal (z-score),GlcA(b1-3)GlcNAc,0.873
same,glycan array binding signal (z-score),GlcA(b1-6)Gal,-0.658
same,glycan array binding signal (z-score),[5],-1.09
same,glycan array binding signal (z-score),[6],0.545
same,glycan array binding signal (z-score),[7],-0.557
same,glycan array binding signal (z-score),[8],0.474
same,glycan array binding signal (z-score),[9],0.925
same,glycan array binding signal (z-score),[10],-0.973
same,glycan array binding signal (z-score),[11],-0.449
same,glycan array binding signal (z-score),[12],3.03
same,glycan array binding signal (z-score),[13],-0.466
same,glycan array binding signal (z-score),[14],0.091
same,glycan array binding signal (z-score),[15],-0.276
same,glycan array binding signal (z-score),[16],-0.155
same,glycan array binding signal (z-score),[17],0.168
same,glycan array binding signal (z-score),GlcNAc(b1-3)Gal,-1.18
same,glycan array binding signal (z-score),[18],-0.668
same,glycan array binding signal (z-score),GlcNAc(b1-3)Gal(b1-4)Glc,0.075
same,glycan array binding signal (z-score),[19],-0.304
same,glycan array binding signal (z-score),[20],-1.92
same,glycan array binding signal (z-score),GlcNAc(b1-3)GalNAc,-0.468
same,glycan array binding signal (z-score),GlcNAc(b1-3)Man,0.161
same,glycan array binding signal (z-score),[21],-0.829
same,glycan array binding signal (z-score),[22],0.038
same,glycan array binding signal (z-score),[23],-0.453
same,glycan array binding signal (z-score),[24],-1.07
same,glycan array binding signal (z-score),GlcNAc(b1-4)GlcNAc,-0.001
same,glycan array binding signal (z-score),[25],-0.851
same,glycan array binding signal (z-score),[26],1.01
same,glycan array binding signal (z-score),[27],-1.6
same,glycan array binding signal (z-score),[28],-1.39
same,glycan array binding signal (z-score),[29],1.24
same,glycan array binding signal (z-score),GlcNAc(b1-6)GalNAc,-1.06
same,glycan array binding signal (z-score),GlcNAc3Prop(b1-4)GlcNAc,0.336

# Shown bar-delimited: entries from further up.
binder | measurement | setting | value
B1 | glycan array binding signal (z-score) | GlcNAc(b1-3)Gal(b1-4)Glc | 0.075
same | glycan array binding signal (z-score) | [27] | -1.6
